PubChem BioAssay AID1259254, NCATS, 2017
This is one part, drawn at random, of about 59,000 reagents tested. Of all reagents, about 1,550 (2.6%) are marked active. 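G2 share is only a proxy for re-replication; each gene was hit by three separate siRNAs, and active genes were retested.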 Raw values are not corrected between plates. Reagents against one gene are numbered here. Not stated in the record: the amount of reagent.

Aim: 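Finding genes that stop cells copying their DNA twice in one cycle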 (primary screen)
Cell system: human HCT116 colorectal cancer cells
Reagents: single siRNA against human genes
Duration: 3 days
Detection: 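Nuclei stained with Hoechst and imaged; cell-cycle phase assigned by DNA content; G2 share scaled per plate, non-targeting siRNA 0%, GMNN siRNA 100%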
Direction: G2 robust z-score and G2 cells, % of GMNN control: higher = more G2 cells, more excess DNA replication; raw share of cells in G2: higher = larger share of cells with G2 DNA content
Active means: 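Active siRNAs have a G2 robust z of 5 or more median absolute deviations over the median, which in these data means about 38% or higher of GMNN control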

| gene symbol | reagent | G2 robust z-score | G2 cells, % of GMNN control | raw share of cells in G2 (%) | outcome |
| --- | --- | --- | --- | --- | --- |
| RPS6 (ribosomal protein S6) | 1 | 6.63 | 49.6 | 26.1 | active |
| RPS6 (ribosomal protein S6) | 2 | 0.525 | 6.66 | 6.85 | inactive |
| RPS6 (ribosomal protein S6) | 3 | 4.33 | 33.4 | 15.4 | inactive |
| ARPC5 (actin related protein 2/3 complex subunit 5) | 1 | -0.44 | -0.131 | 3.15 | inactive |
| ARPC5 (actin related protein 2/3 complex subunit 5) | 2 | -1.4 | -6.9 | 2.6 | inactive |
| ARPC5 (actin related protein 2/3 complex subunit 5) | 3 | -0.353 | 0.486 | 4.95 | inactive |
| AKR1B1 (aldo-keto reductase family 1 member B) | 1 | 0.363 | 5.52 | 7.04 | inactive |
| AKR1B1 (aldo-keto reductase family 1 member B) | 2 | 1.42 | 13 | 9.14 | inactive |
| AKR1B1 (aldo-keto reductase family 1 member B) | 3 | 1.05 | 10.4 | 7.86 | inactive |
| GALM (galactose mutarotase) | 1 | 1.79 | 15.5 | 11.2 | inactive |
| GALM (galactose mutarotase) | 2 | -1.36 | -6.59 | 2.29 | inactive |
| GALM (galactose mutarotase) | 3 | -0.257 | 1.16 | 6.51 | inactive |
| CCNC (cyclin C) | 1 | 2.07 | 17.5 | 10.5 | inactive |
| CCNC (cyclin C) | 2 | -1.04 | -4.36 | 3.52 | inactive |
| CCNC (cyclin C) | 3 | -1.62 | -8.42 | 1.85 | inactive |
| CCL26 (C-C motif chemokine ligand 26) | 1 | -0.339 | 0.585 | 5.95 | inactive |
| CCL26 (C-C motif chemokine ligand 26) | 2 | 0.942 | 9.59 | 6.94 | inactive |
| CCL26 (C-C motif chemokine ligand 26) | 3 | -0.365 | 0.402 | 6.64 | inactive |
| AQP12A (aquaporin 12A) | 1 | -0.359 | 0.439 | 3.6 | inactive |
| AQP12A (aquaporin 12A) | 2 | -0.56 | -0.972 | 4.22 | inactive |
| AQP12A (aquaporin 12A) | 3 | -0.175 | 1.74 | 4.37 | inactive |
| CHST4 (carbohydrate sulfotransferase 4) | 1 | 0.382 | 5.66 | 5.67 | inactive |
| CHST4 (carbohydrate sulfotransferase 4) | 2 | 1.91 | 16.4 | 12.8 | inactive |
| CHST4 (carbohydrate sulfotransferase 4) | 3 | 0.1 | 3.67 | 7.93 | inactive |
| PRDM4 (PR/SET domain 4) | 1 | -0.199 | 1.57 | 4.05 | inactive |
| PRDM4 (PR/SET domain 4) | 2 | -0.759 | -2.37 | 4.93 | inactive |
| PRDM4 (PR/SET domain 4) | 3 | 0.442 | 6.08 | 5.88 | inactive |
| CLCA4 (chloride channel accessory 4) | 1 | 0.173 | 4.18 | 6.81 | inactive |
| CLCA4 (chloride channel accessory 4) | 2 | 1.09 | 10.6 | 8.38 | inactive |
| CLCA4 (chloride channel accessory 4) | 3 | -0.686 | -1.86 | 3.65 | inactive |

2 consecutive reagents from above:
| gene symbol | reagent | G2 robust z-score | G2 cells, % of GMNN control | raw share of cells in G2 (%) | outcome |
| --- | --- | --- | --- | --- | --- |
| AQP12A (aquaporin 12A) | 2 | -0.56 | -0.972 | 4.22 | inactive |
| AQP12A (aquaporin 12A) | 3 | -0.175 | 1.74 | 4.37 | inactive |
